The test deals with T1, serum response factor (rat (endogenous in PAC1)) (UniProt D3ZHH8).
T1 sequence: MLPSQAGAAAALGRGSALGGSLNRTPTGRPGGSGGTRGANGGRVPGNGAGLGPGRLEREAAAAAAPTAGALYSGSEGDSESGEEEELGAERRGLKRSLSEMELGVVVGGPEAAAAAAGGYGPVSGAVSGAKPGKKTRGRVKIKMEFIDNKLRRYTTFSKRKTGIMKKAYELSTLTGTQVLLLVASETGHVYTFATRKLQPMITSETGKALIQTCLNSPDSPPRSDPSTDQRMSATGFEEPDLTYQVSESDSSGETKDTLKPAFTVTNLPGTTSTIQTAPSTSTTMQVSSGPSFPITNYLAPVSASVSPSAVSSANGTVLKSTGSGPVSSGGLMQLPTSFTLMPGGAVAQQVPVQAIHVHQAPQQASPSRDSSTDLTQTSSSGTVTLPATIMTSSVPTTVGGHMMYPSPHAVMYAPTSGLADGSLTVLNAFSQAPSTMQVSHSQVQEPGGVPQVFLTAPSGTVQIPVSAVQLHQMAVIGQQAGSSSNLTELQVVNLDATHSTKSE
As to the kind of experiment: co-IP; immunoprecipitation with SRF antibody from nuclear protein extract (NPE) of PAC1 cells; 400 μg protein, 4 μg antibody, overnight at 4°C; western blot with SM22 antibody.

No constants are given. Whether binding was seen depends on the method and setting. In cells and extracts the contact can be indirect. Some results given as binding are weak or reduced against the parent protein; the word gives no strength.

B1: SM22α (protein, UniProt P31232 1-201)
chain: MANKGPSYGMSREVQSKIEKKYDEELEERLVEWIVMQCGPDVGRPDRGRLGFQVWLKNGVILSKLVNSLYPEGSKPVKVPENPPSMVFKQMEQVAQFLKAAEDYGVTKTDMFQTVDLFEGKDMAAVQRTVMALGSLAVTKNDGHYRGDPNWFMKKAQEHKREFTDSQLQEGKHVIGLQMGSNRGASQAGMTGYGRPRQIIS
B1: the binding result is given as “binds”.

For the origin of these results see paper PMC5746259.
